The test deals with recombinant 3xFlag-WT Auxilin (UniProt O75061). Nature of the test: pull-down.

Chains of the proteins cited; added tags and fusions are not shown. Lines headed by an entry give the natural chain unless they say otherwise; changes in a name come on top.
UniProt O75061: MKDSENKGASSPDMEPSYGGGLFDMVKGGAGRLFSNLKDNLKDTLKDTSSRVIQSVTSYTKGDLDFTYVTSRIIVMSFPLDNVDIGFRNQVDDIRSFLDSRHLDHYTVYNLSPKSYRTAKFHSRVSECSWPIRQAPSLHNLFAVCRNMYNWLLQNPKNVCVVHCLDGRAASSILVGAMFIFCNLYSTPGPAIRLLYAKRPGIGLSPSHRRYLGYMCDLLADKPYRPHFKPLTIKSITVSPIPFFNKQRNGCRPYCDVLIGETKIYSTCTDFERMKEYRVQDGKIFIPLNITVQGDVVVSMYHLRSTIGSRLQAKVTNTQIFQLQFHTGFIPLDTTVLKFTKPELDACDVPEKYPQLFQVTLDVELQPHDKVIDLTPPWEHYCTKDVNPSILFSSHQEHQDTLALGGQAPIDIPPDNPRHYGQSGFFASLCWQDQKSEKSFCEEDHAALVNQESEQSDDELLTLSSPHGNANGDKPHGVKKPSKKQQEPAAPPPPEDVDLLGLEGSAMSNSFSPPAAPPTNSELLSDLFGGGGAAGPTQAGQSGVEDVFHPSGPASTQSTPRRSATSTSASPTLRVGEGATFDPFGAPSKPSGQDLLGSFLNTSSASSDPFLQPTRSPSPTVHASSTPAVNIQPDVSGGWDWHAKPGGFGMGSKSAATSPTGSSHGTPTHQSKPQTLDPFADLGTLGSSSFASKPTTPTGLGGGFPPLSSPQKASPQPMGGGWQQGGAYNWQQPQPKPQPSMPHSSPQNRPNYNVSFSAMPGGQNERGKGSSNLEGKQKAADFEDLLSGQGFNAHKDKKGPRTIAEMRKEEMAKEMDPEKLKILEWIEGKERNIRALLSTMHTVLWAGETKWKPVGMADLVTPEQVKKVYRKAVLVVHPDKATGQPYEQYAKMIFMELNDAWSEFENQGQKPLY
UniProt Q9UJY4: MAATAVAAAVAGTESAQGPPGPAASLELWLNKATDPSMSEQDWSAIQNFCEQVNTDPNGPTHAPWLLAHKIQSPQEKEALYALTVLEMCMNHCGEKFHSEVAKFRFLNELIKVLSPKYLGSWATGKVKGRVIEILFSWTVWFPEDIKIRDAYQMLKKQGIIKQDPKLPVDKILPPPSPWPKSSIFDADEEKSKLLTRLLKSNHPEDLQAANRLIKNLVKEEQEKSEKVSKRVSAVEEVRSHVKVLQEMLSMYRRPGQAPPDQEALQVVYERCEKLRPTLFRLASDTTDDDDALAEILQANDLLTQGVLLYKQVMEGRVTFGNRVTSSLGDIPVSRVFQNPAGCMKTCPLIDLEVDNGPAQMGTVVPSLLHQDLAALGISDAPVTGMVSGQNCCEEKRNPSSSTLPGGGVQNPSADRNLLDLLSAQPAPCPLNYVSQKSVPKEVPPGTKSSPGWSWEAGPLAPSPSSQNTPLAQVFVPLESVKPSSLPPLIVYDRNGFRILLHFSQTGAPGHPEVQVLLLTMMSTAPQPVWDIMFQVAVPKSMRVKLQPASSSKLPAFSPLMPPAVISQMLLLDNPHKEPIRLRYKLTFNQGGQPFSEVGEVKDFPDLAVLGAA

These are yes or no findings as the source states them, for the method shown. Binding seen in cells or lysates may run through a third protein. A result given as binding can be weak or reduced; the word gives no strength.

For the substance “recombinant GST-GGA2 (from UniProt Q9UJY4 1-613)”, the binding entry is recorded as “binds”.

These data come from doi:10.1101/830802.
